# Test results published in PubChem BioAssay AID488837 (National Center for Advancing Translational Sciences (NCATS), 2010).
# By UniProt entry, the sequences of proteins in these tests, tags left out.
# UniProt O00167, whole entry: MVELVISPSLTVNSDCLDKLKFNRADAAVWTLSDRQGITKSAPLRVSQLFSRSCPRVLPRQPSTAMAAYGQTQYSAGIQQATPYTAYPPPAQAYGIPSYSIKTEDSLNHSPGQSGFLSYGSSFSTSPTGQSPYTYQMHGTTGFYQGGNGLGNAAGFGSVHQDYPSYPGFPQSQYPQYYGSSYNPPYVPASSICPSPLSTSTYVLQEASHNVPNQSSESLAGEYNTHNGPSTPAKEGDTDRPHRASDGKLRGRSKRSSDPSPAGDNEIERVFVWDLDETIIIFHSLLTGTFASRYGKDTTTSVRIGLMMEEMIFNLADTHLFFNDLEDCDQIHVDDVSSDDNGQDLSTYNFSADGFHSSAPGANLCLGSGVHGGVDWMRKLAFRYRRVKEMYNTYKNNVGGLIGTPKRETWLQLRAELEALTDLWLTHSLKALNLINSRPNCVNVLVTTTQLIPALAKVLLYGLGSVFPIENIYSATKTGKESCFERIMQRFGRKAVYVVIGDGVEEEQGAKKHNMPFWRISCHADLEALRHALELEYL
# In all, about 330,000 compounds went through this assay and about 20 (0.006%) were called active. All entries are inconclusive by the source's own rule. Clear calls are listed elsewhere. Calls follow the shape of the dose curve; as a rule, active = well fitted inhibition curve with a large enough effect; inconclusive = small, poorly fitted or top-dose-only effect, or effect the other way; inactive = flat fitted curve, though single readings scatter.
# Target: Protein phosphatase EYA2 (Homo sapiens) (UniProt O00167)
# Assay: qHTS Assay for Inhibitors of the Phosphatase Activity of Eya2
# Details: recombinant Eya2, OMFP fluorescence dephosphorylation (OMFP is methylfluorescein phosphate)
# Excerpt: The Eya family of proteins are essential co-activators of the Six1 transcription factor. Six1 is a developmental gene that is abnormally re-expressed in a large percentage of breast cancers. This over-expression plays a causal role in the initiation and metastatic development of breast cancers. The Eya family of proteins was also found to contain a unique HAD phosphatase domain with protein tyrosine phosphatase activity which can potentially play a role in Six1-mediated breast tumorigenesis. […] We have developed and optimized a 1536 well fluorescence-based HTS assay targeting the phosphatase activity of Eya2. Inhibitors found against Eya2 could serve as potential therapeutic tools to inhibit Six1-mediated breast tumorigenesis and to increase the efficiency of radiation and certain chemo therapy. These inhibitors could also be used as chemical probes to study the function of Eya2's phosphatase activity and its role in Six1-mediated breast tumorigenesis.
# The Eya2 enzyme was kindly provided by the laboratory of Dr. Rui Zhao. The 3-O-methyl-fluorescein phosphate (OMFP) substrate and all buffer reagents were purchased from Sigma Aldrich. qHTS Assay Setup: 1. Buffer- 50 mM HEPES pH 7.5, 50 mM NaCl, 5 uM MgCl2, 0.05% BSA, 1 mM DTT. 2. OMFP Stock- 10 mM solution prepared in 100% DMSO and stored in single use aliquots at -20C. Assay Procedure- 1. Dispense 1.5 ul per well of Eya2 at 0.2 uM in black medium binding 1536 well Greiner plate 2. Transfer 23 nl of compound and control compound (EGTA) to plate 3. Incubate at ambient for 10 minutes 4. Dispense 1.5 ul per well of OMFP at 50 uM 5. Incubate at ambient for 10 minutes 6. Read on ViewLux using Excitation = 485 nm, Emission = 525 nm
# Potency is read from the fitted curve at half-maximal effect.
row,SMILES,Potency
1,O=[N+]([O-])c1cc([N+](=O)[O-])c(Nc2nnnn2CCO)c([N+](=O)[O-])c1,inconclusive: 100 µM
2,CCc1ccc(OP(C)(=O)Nc2cccnc2)cc1 (stereo not drawn),inconclusive: 112 µM
3,COc1ccccc1OP(C)(=O)Nc1ccc(C)cc1C (stereo not drawn),inconclusive: 15.8 µM
